Reference: patent US20030211506

Assays:
Assay in all cases: activity assay
[1] = system: BbvCI #1-35 nicking mutant; conditions: SDA product 110-130 bp; 10 mM MgCl2, 50 mM KCl, 45 C; purified recombinant protein
[2] = system: BbvCI #2-12 nicking mutant; conditions: SDA product 110-130 bp; 5 mM MgCl2, 50 mM KCl, 45 C; purified recombinant protein
[3] = system: BsrFI restriction endonuclease; conditions: SDA product 150-500 bp, none without BsrFI; 2.5 mM MgCl2, 0-50 mM KCl, 55 C; purified native protein
[4] = system: N.MlyI nicking endonuclease; conditions: SDA product 110-130 bp; 5 mM MgCl2, 50 mM KCl, 53 C; purified recombinant protein
[5] = system: T1, N.BstNBI nicking endonuclease (Bacillus stearothermophilus 33M); conditions: purified recombinant protein
T1 sequence: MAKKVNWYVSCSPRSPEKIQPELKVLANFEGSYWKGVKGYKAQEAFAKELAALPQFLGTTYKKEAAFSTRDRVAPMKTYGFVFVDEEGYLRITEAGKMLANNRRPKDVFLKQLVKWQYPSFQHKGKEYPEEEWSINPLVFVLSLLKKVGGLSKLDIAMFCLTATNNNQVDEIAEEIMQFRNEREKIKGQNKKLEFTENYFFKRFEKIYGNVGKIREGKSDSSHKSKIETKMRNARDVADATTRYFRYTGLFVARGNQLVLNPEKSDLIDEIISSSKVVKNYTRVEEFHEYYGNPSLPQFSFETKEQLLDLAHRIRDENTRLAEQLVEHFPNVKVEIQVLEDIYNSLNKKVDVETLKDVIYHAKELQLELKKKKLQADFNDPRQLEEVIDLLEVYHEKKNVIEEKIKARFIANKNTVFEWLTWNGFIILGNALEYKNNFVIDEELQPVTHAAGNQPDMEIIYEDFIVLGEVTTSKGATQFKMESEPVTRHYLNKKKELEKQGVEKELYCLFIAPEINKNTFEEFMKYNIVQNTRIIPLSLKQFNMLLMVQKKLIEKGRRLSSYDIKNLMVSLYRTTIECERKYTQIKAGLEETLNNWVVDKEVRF

[6] = system: N.AlwI nicking endonuclease; conditions: SDA product 110-130 bp; 10 mM MgCl2, 0 mM KCl, 53 C; purified recombinant protein
[7] = SDA product 110-130 bp, 10 mM MgCl2, 100 mM KCl, 53 C
[8] = SDA with Bst DNA Pol gave 160 bp product, 2.5 mM MgCl2, 100 mM KCl, 55 C

## ACCGCATCGAATATGTATCGCCCTCAGCTACGACGGCCAGTG (double strand) [P49 forward]
[1]
  activity on this sequence: active

## ACCGCATCGAATATGTATCGCGCTGAGGTACGACGGCCAGTG (double strand) [P51 forward]
[2]
  activity on this sequence: active

## ACCGCATCGAATGCATGTACCGGCTACGACGGCCAGTG (double strand) [P13 forward]
[3]
  activity on this sequence: active

## ACCGCATCGAATGCGAGTCATGTTACGACGGCCAGTG (double strand) [P33 forward]
[4]
  activity on this sequence: active
[5]; [7]
  activity on this sequence: active

## ACCGCATCGAATGCGAGTCGAGGACGACGGCCAGTG (double strand) [SDA primer 40 site]
[5]; [8]
  activity on this sequence: active

## ACCGCATCGAATGCGGATCATGTTACGACGGCCAGTG (double strand) [P47 forward]
[6]
  activity on this sequence: active

## CGATTCCGCAATGCGAGTCGAGGCCATGATTACGCCAA (double strand) [SDA primer 41 site]
[5]; [8]
  activity on this sequence: active

## CGATTCCGCTCCAGACTTACCGGCTCCATGATTACGCCAA (double strand) [P14 reverse]
[3]
  activity on this sequence: active

## CGATTCCGCTCCAGACTTATCCCTCAGCTCCATGATTACGCCAA (double strand) [P50 reverse]
[1]
  activity on this sequence: active

## CGATTCCGCTCCAGACTTATCGCTGAGGTCCATGATTACGCCAA (double strand) [P52 reverse]
[2]
  activity on this sequence: active

## CGATTCCGCTCCAGGAGTCACTTTCCATGATTACGCCAA (double strand) [P34 reverse]
[4]
  activity on this sequence: active
[5]; [7]
  activity on this sequence: active

## CGATTCCGCTCCAGGGATCACTTTCCATGATTACGCCAA (double strand) [P48 reverse]
[6]
  activity on this sequence: active

For some assays here: Protein sequences can lack the tags named with them. For some assays here: Construct, isoform or probe ends are uncertain for at least one entry.
